Results reported in PMC8060413.
Results are given in words; binding and its absence hold for the method and conditions named. Some results given as binding are weak or reduced against the parent protein; the word gives no strength.

Target: T1, Ssz1 (wild type, subunit of wt RAC) (yeast) (UniProt P38788)
T1 sequence: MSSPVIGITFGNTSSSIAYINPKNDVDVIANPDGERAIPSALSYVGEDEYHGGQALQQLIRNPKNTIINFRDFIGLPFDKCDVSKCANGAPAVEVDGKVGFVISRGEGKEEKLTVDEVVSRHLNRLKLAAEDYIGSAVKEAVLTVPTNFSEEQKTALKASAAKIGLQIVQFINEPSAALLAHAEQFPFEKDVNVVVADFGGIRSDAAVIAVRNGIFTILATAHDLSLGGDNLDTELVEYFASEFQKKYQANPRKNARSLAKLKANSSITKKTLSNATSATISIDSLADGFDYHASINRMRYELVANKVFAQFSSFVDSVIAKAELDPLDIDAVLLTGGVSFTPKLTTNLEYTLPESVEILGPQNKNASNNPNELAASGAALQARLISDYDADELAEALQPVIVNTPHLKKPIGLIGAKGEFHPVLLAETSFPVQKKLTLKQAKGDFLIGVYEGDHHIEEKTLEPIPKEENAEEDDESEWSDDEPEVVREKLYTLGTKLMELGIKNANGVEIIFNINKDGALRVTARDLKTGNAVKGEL
Assay: co-purification (Ni-IDA affinity, anion exchange, size exclusion); Ssz1 and Zuo1 co-expressed in E. coli; complex held on Ni-IDA by His6-SUMO on Ssz1, washed with 100 mM and 1 M KAc, eluted with 300 mM imidazole; His6-SUMO removed by Ulp1; then ResourceQ and HiLoad Superdex 200 in 40 mM HEPES pH 7.4, 100 mM KAc, 5 mM MgCl2, 5% glycerol

B1: Zuo1 (wild type, subunit of wt RAC) (protein, UniProt P32527 1-433)
chain: MFSLPTLTSDITVEVNSSATKTPFVRRPVEPVGKFFLQHAQRTLRNHTWSEFERIEAEKNVKTVDESNVDPDELLFDTELADEDLLTHDARDWKTADLYAAMGLSKLRFRATESQIIKAHRKQVVKYHPDKQSAAGGSLDQDGFFKIIQKAFETLTDSNKRAQYDSCDFVADVPPPKKGTDYDFYEAWGPVFEAEARFSKKTPIPSLGNKDSSKKEVEQFYAFWHRFDSWRTFEFLDEDVPDDSSNRDHKRYIERKNKAARDKKKTADNARLVKLVERAVSEDPRIKMFKEEEKKEKERRKWEREAGARAEAEAKAKAEAEAKAKAESEAKANASAKADKKKAKEAAKAAKKKNKRAIRNSAKEADYFGDADKATTIDEQVGLIVDSLNDEELVSTADKIKANAAGAKEVLKESAKTIVDSGKLPSSLLSYFV
binding: binds
